Experiments:
[1] = Evaluation by trained and/or certified flavor or fragrance chemists or master perfumers; categorization by commercial prospect; conditions: category of commercial prospect, (A) highest > (B) > (C) > (D) lowest; (E) requires further study
odor evaluation panel = assay: Odor evaluation panel rating of odorants by Rate-All-That-Apply (RATA) method with 55-word odor lexicon, plus intensity and pleasantness; design: species or system human; conditions: for Floral: mean panelist score for odor label floral (RATA); for Fruity: mean panelist score for odor label fruity (RATA); for Spicy: mean panelist score for odor label spicy (RATA); for Sweet: mean panelist score for odor label sweet (RATA); for Pleasantness: mean panelist score for odor pleasantness

Row | Structure (SMILES) | Rating [1] | Floral (odor evaluation panel) | Fruity (odor evaluation panel) | Spicy (odor evaluation panel) | Sweet (odor evaluation panel) | Pleasantness (odor evaluation panel)
1 | CCCC(=O)C(C)CC (centres unmarked) [Compound 407, 3-methylheptan-4-one] | (A) | 0.156 | 1.062 | 0.031 | 1.531 | 5.85
2 | CC(C)CN1CCOCC1 [Compound 409, 4-(2-methylpropyl)morpholine] | (D) | 0.133 | 0.067 | 0 | 0.5 | 2.743
3 | CCNc1cc(O)ccc1C [Compound 411, 3-(ethylamino)-4-methylphenol] | (D) | 0.125 | 0.344 | 0 | 0.281 | 4.222
4 | COc1cc(OC)nc(N)n1 [Compound 413, 4,6-dimethoxypyrimidin-2-amine] | (A) | 0 | 0 | 0.057 | 0.057 | 4.957
5 | CC(=O)C12CC3CC(CC(C3)C1)C2 [Compound 414, 1-(1-adamantyl)ethanone] | (B) | 0.171 | 0.457 | 0 | 0.771 | 5.346
6 | CN(C)C#N [Compound 415, dimethylcyanamide] | (D) | 0.531 | 0.5 | 0.438 | 1.094 | 4.612
7 | CC[C@H](C)[C@H](N)CO.Cl [Compound 416, L-isoleucinol HCl] | (D) | 0.111 | 0 | 0 | 0.611 | 
8 | OCC1CCC=CO1 (centres unmarked) [Compound 417, 3,4-dihydro-2H-pyran-2-ylmethanol] | (B) | 0.167 | 0.667 | 0.083 | 0.417 | 
9 | CC(=O)C1CCOC1=O (centres unmarked) [Compound 418, 3-acetyloxolan-2-one] | (B) | 0 | 0.059 | 0.029 | 0.5 | 3.944
10 | CC1CN(C(=O)OC(C)(C)C)CCN1 (centres unmarked) [Compound 419, tert-butyl 3-methylpiperazine-1-carboxylate] | (D) | 0.094 | 0 |  | 1 | 6.516
11 | CCOC(=O)C1(C#N)CC1 [Compound 424, ethyl 1-cyanocyclopropane-1-carboxylate] | (A) | 0.472 | 0.5 | 0.139 | 1.306 | 
12 | COC(=O)C1CCOCC1 [Compound 427, methyl oxane-4-carboxylate] | (B) | 0.594 | 1.844 | 0 | 1.906 | 5.772
13 | CCOC(C)=C(C#N)C#N [Compound 428, 2-(1-ethoxyethylidene)propanedinitrile] | (D) | 0 | 0.111 | 0.167 | 0.528 | 
14 | CCCCC(=O)NN [Compound 432, pentanehydrazide] | (C) | 0.094 | 0.094 | 0.031 | 0 | 3.522
15 | CCN(CC)CCOCCO [Compound 433, 2-[2-(diethylamino)ethoxy]ethanol] | (D) | 0.212 | 0.364 | 0 | 0.727 | 5.17
16 | O=C1CC2CC1C1CCCC21 (centres unmarked) [Compound 434, tricyclo[5.2.1.02,6]decan-8-one] | (D) | 0.4 | 0.6 | 0.171 | 1.429 | 6.346
17 | O=[N+]([O-])c1ccc2c(c1)CCN2 [Compound 436, 5-nitro-2,3-dihydro-1H-indole] | (D) | 0 | 0.176 | 0.353 | 0.206 | 5.203
18 | Cc1c[nH]c(=O)c(N)c1 [Compound 439, 3-amino-5-methyl-1H-pyridin-2-one] | (D) | 0.333 | 0 | 0.273 | 0.576 | 4.355
19 | CC(=O)C1CC1 [Compound 442, 1-cyclopropylethanone] | (D) | 0.062 | 0.312 | 0 | 0.375 | 3.981
20 | O=Cc1cc2ccccc2s1 [Compound 445, 1-benzothiophene-2-carbaldehyde] | (D) | 0.694 | 2.472 | 0.361 | 1.694 | 
21 | CC1(C)C[C@@H]1C(N)=O [Compound 449, (1S)-2,2-dimethylcyclopropane-1-carboxamide] | (D) | 0.194 | 0.871 | 0 | 1.419 | 5.623
22 | Cc1csc(C(=O)O)c1 [Compound 450, 4-methylthiophene-2-carboxylic acid] | (D) | 0 | 0 | 0.938 | 0.344 | 3.059
23 | Cc1cccc(C)c1C#N [Compound 451, 2,6-dimethylbenzonitrile] | (C) | 0.222 | 0.028 | 0.389 | 0.667 | 
24 | OCCN1CCCCC1 [Compound 452, 2-piperidin-1-ylethanol] | (D) | 0.212 | 0 | 0 | 0.333 | 4.242
25 | CC(=O)c1ccsc1 [Compound 453, 1-thiophen-3-ylethanone] | (B) | 0.226 | 0.194 | 0.161 | 1.129 | 5.271
26 | Cc1cnc[nH]1 [Compound 455, 5-methyl-1H-imidazole] | (A) | 0.094 | 0 | 0.062 | 0.719 | 6.778
27 | CCN(Cc1ccccc1)c1ccccc1 [Compound 457, N-benzyl-N-ethylaniline] | (D) | 1.743 | 0.6 | 0.086 | 1.371 | 6.134
28 | O=c1cc[nH]cc1[N+](=O)[O-] [Compound 458, 3-nitro-1H-pyridin-4-one] | (A) | 0.129 | 0.129 | 0 | 0.323 | 5.371
